Results reported in PubChem BioAssay AID445 (National Center for Advancing Translational Sciences (NCATS), 2006).
The other results are listed elsewhere or left out. The main result of the screen is listed elsewhere. These columns were measured beside it and carry no call. The list favours compounds with an active or inconclusive main result. Potencies come from curve fits of mixed quality, noted in brackets.

Assay: IkB Signaling
Settings: ABC-DLBCL IkBa-CBG/CBR dual luciferase ratio (green luciferase fused to IkBa over red control in OCI-Ly3 lymphoma cells), 4 h
Outline: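 Curves were fitted separately to fusion (green), unfused (red) and ratio luminescence, then classed by r2, magnitude and activity. Cells: OCI-Ly3, 4 h compound plus doxycycline at 37C; 10 uM MG-132 defined full response.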

[1] = measured here: control luc red channel unless noted
[2] = measured here: IkB-luc green channel
[3] = measured here: control luc red channel

## O=C(NCc1ccc(F)cc1)c1cc2c(=O)n3ccccc3nc2s1
[1]
  AC50: 1 µM [rising, full curve]

## Cc1ccc(CNC(=O)Cn2c(=O)n(-c3ccc(Cl)cc3)c(=O)c3c(C)c(C)sc32)cc1
[1]
  AC50: 0.316 µM [falling, partial curve]

## O=C(NCc1ccccc1)c1nn(-c2ccccc2)nc1CO
[1]
  AC50: 31.6 µM [falling, single point]

## Cc1cc(C)cc(NS(=O)(=O)c2ccc3[nH]cc(C(=O)N(C)Cc4ccccc4)c(=O)c3c2)c1
[1]
  AC50: 12.6 µM [falling, partial curve]

## Cc1nn(C)c2c1c(C(F)(F)F)cc(=O)n2C(C)C(=O)NCc1ccc(Cl)cc1 (centres undefined)
[1]
  AC50: 31.6 µM [falling, single point]

## CCOC(=O)c1ccc(NS(=O)(=O)c2cc(-c3onc(C)c3C)ccc2C)cc1
[1]
  AC50: 39.8 µM [falling, single point]

## CCSc1nnc(NC(=O)c2ccc(Br)s2)s1
[1]
  AC50: 0.398 µM [falling, full curve]

## CCN1C(=O)c2ccccc2S(=O)c2ccc(C(=O)N3CCN(c4cccc(C)c4)C(C)C3)cc21 (centres undefined)
[1]
  AC50: 20 µM [falling, single point]

## COc1ccc(/C=C(\C#N)c2nc(-c3cc4c(ccc5ccccc54)oc3=O)cs2)cc1O
[1]
  AC50: 3.98 µM [falling, partial curve]

## O=C(O)c1ccc(-n2c(/C=C\c3ccc(O)cc3)nc3ccccc3c2=O)cc1
[1]
  AC50: 20 µM [falling, single point]

## CCOC(=O)c1ccccc1NC(=O)c1sc2ncn(Cc3cccc(F)c3)c(=O)c2c1C
[1]
  AC50: 20 µM [falling, partial curve, poor fit]

## CC1=C(C(=O)Nc2cccnc2)C(c2ccc(Cl)cc2)n2nc(-c3ccccc3)nc2N1 (centres undefined)
[1]
  AC50: 12.6 µM [falling, partial curve]

## COc1ccc(OC)c(S(=O)(=O)NCc2cccn2Cc2cccc(C)c2)c1
[1]
  AC50: 20 µM [falling, single point]

## Clc1ccc(OCCN2CCN(c3ncnc4sccc34)CC2)cc1
[1]
  AC50: 12.6 µM [falling, partial curve]

## Cc1ccc(C)c(NC(=O)CSc2c3c(nc4ccc(Cl)cc24)CCCC3)c1
[1]
  AC50: 3.16 µM [falling, single point]

## COc1cn(CC(=O)Nc2cccc(C)c2C)c(CN2CCCCC2)cc1=O
[1]
  AC50: 6.31 µM [rising, single point]

## COc1ccc(C(=O)Nc2cccc(OCc3cc(=O)n4c5c(sc4n3)CCCC5)c2)cc1
[1]
  AC50: 0.631 µM [falling, full curve]

## COc1ccc(CC(=O)Nc2cccc(-c3nnc(-c4cccc(C)c4)o3)c2)cc1OC
[2]
  AC50: 2 µM [falling, full curve]
[3]
  AC50: 0.794 µM [falling, full curve]

## COC(=O)c1sc(NC(=O)/C=C/c2ccc(OC)c(OC)c2)c(C(=O)OC)c1C
[2]
  AC50: 10 µM [rising, partial curve]
[3]
  AC50: 1.26 µM [falling, full curve]

## COc1ccccc1-c1cc(C(=O)Nc2ccccc2C(F)(F)F)no1
[1]
  AC50: 0.00794 µM [falling, full curve]

## O=C(NCCSCc1ccc(Cl)cc1)C1CCN(S(=O)(=O)Cc2ccccc2)CC1
[1]
  AC50: 15.8 µM [falling, single point]

## O=C(CN1C(=O)C2CCCCN2c2ccc(C(=O)N3CCCC3)cc21)NCc1cccc(Cl)c1 (centres undefined)
[1]
  AC50: 2 µM [falling, full curve, poor fit]

## Cc1ccc(Cl)c2sc(NC(=O)CS(=O)(=O)c3ccc(Cl)cc3)nc12
[1]
  AC50: 15.8 µM [falling, partial curve]

## Cc1ccc(CN(C(=O)Nc2cccc(Cl)c2)c2ccccn2)cc1
[1]
  AC50: 0.501 µM [rising, full curve]

## O=C(CSc1nnc2c(n1)[nH]c1ccc(F)cc12)OCc1ccccc1
[1]
  AC50: 15.8 µM [falling, partial curve]

## COc1ccc(Cn2nnnc2C(C(C)C)N2CCc3ccccc32)cc1 (centres undefined)
[1]
  AC50: 20 µM [falling, single point]

## O=C(Nc1ccc(N2CCN(C(=O)c3ccco3)CC2)c(Cl)c1)c1cc2ccccc2o1
[1]
  AC50: 3.98 µM [falling, full curve] [measured here: IkB-luc green channel]

## Cc1ccc(Cn2c(-c3ccccc3)nc3ccccc32)cc1
[1]
  AC50: 25.1 µM [falling, single point]

## COc1cc(/C=C(\C#N)c2nc3ccccc3c(=O)[nH]2)cc(OC)c1OC
[1]
  AC50: 2.51 µM [falling, partial curve]

## COc1cccc(-c2cc(N)nn2C(=O)Nc2ccc(Cl)cc2)c1
[1]
  AC50: 31.6 µM [falling, single point]

## Cc1ccc(C)c(Cn2c(=O)n(CCCCC(=O)NCc3ccccc3Cl)c(=O)c3ccccc32)c1
[1]
  AC50: 0.0501 µM [rising, full curve, poor fit]

## CCOc1ccccc1NC(=O)Cn1ccn(-c2ccccc2)c(=O)c1=O
[1]
  AC50: 10 µM [falling, partial curve]

## COc1ccccc1N1CCN(c2csc3ccc(Cl)cc3c2=O)CC1
[1]
  AC50: 0.0398 µM [rising, full curve, poor fit]

## N#Cc1c(NC(=O)Cn2cnc3ccccc3c2=O)oc(-c2ccccc2)c1-c1ccccc1
[1]
  AC50: 10 µM [falling, partial curve]

## Cn1c(=NC(=O)c2ccc3c(c2)OCCO3)sc2cc(S(C)(=O)=O)ccc21
[1]
  AC50: 15.8 µM [rising, partial curve, poor fit]

## CCOC(=O)c1ccc(NC(=O)C2CCCN(c3ccc(Sc4ccc(C)cc4)nn3)C2)cc1 (centres undefined)
[1]
  AC50: 10 µM [falling, partial curve]

## Cc1cc(Br)ccc1NC(=O)CCS(=O)(=O)c1cccc2nsnc12
[1]
  AC50: 0.158 µM [falling, full curve, poor fit]

## CC(=O)NCCNc1nc2c(S(=O)(=O)c3ccc(C)c(C)c3)nnn2c2ccc(Cl)cc12
[1]
  AC50: 20 µM [falling, single point]

## CCN(CCCCN1C(=O)c2ccccc2C1=O)c1ccc2c(c1)C(=O)N(C)C2=O
[1]
  AC50: 15.8 µM [falling, partial curve]

## Cc1ccc(C(C)C)c(OCC(=O)Nc2ccc(S(=O)(=O)Nc3onc(C)c3C)cc2)c1
[1]
  AC50: 39.8 µM [falling, single point]

## CCn1c(SCC(=O)Nc2cccc(NC(=O)c3cccs3)c2)nnc1-c1ccncc1
[1]
  AC50: 10 µM [falling, partial curve]

## COc1ccc(-c2cn3nc(N4CCC(C(=O)Nc5cccc(Cl)c5)CC4)sc3n2)cc1
[1]
  AC50: 6.31 µM [rising, single point]

## Cc1ccc(CNC(=O)Cc2coc3cc(C)cc(C)c23)cc1
[1]
  AC50: 3.16 µM [falling, full curve]

## CCOc1cc(-c2noc(CCCC(N)=O)n2)cc(Br)c1OC
[1]
  AC50: 5.01 µM [falling, partial curve]

## Cc1cccc(N2CCN(C(=O)CSCc3ccc(F)cc3)CC2)c1C
[1]
  AC50: 20 µM [falling, partial curve]

## CCCCN(C)C(=O)C1CCCN(c2ncnc3onc(-c4ccc(F)cc4)c23)C1 (centres undefined)
[1]
  AC50: 39.8 µM [falling, partial curve]

## O=C(NCc1ccccc1)c1ccc(NC(=O)c2nsc3ccccc23)cc1
[1]
  AC50: 0.158 µM [falling, full curve]

## COc1ccc(CNC(=O)CCC(=O)N2CC3CCCN3c3ccccc32)cc1 (centres undefined)
[1]
  AC50: 12.6 µM [falling, partial curve]

## COc1ccccc1CNC(=O)c1ccc(CS(=O)(=O)c2ccccc2C)o1
[1]
  AC50: 12.6 µM [falling, single point]

## CCCOC(=O)c1ccc(Oc2c(-c3ccc(O)cc3O)n[nH]c2C)cc1
[1]
  AC50: 25.1 µM [falling, single point]

## CC(=O)N1CCCc2cc(S(=O)(=O)N3CCC(C(=O)NCc4ccc(N(C)C)cc4)CC3)ccc21
[1]
  AC50: 15.8 µM [falling, single point]

## CCOc1cccc(CC(=O)Nc2ccc3nc(N4CCCCC4)cc(C)c3c2)c1OCC
[1]
  AC50: 6.31 µM [rising, partial curve]

## Cc1nc2nc(SCC(=O)NCCc3ccccc3)nn2c(C)c1Cc1c(F)cccc1Cl
[1]
  AC50: 25.1 µM [falling, single point]

## O=C(CSc1nc2ncc(Br)cc2[nH]1)Nc1ccc2c(c1)OCO2
[1]
  AC50: 12.6 µM [falling, partial curve]

## CC1(C)CC(=O)C2=C(C1)OC(N)=C(C#N)C2C1CC=CCC1 (centres undefined)
[1]
  AC50: 25.1 µM [falling, partial curve]

## Cc1ccc(C(C)C)c(OCC(=O)N2CCC(c3nc4ccccc4o3)CC2)c1
[1]
  AC50: 15.8 µM [falling, partial curve]

## Nc1c(C(=O)c2ccc(Br)s2)oc2ccccc12
[1]
  AC50: 7.94 µM [rising, single point] [measured here: IkB-luc green channel]

## CCn1c(SCCOc2ccccc2F)nc2ccccc21
[1]
  AC50: 39.8 µM [falling, single point]

## CCOc1ccccc1C(=O)Nc1ccc2c(c1)N(C)C(=O)c1ccccc1S2
[1]
  AC50: 15.8 µM [falling, partial curve]

## Cc1ccccc1OCC(=O)N(Cc1nc(-c2ccccc2)no1)C(C)C
[1]
  AC50: 39.8 µM [falling, single point]

## Cc1c(C2=CCN(S(=O)(=O)c3ccc(CC(C)C)cc3)CC2)c2ccccc2n1CC(=O)N1CCCC1
[1]
  AC50: 0.0398 µM [falling, full curve]

## CC(=O)c1cn(CC(=O)NCc2ccc3c(c2)OCO3)c2ccccc12
[1]
  AC50: 5.01 µM [falling, partial curve]
